Reference: patent US7320879B2, “Method of determining site-specificity and kit therefor” (Biacore AB, priority 2002, dated 2008)

By UniProt entry, the sequences of proteins in these tests, tags left out. Residues count along the entry.
UniProt P02768, 25-609: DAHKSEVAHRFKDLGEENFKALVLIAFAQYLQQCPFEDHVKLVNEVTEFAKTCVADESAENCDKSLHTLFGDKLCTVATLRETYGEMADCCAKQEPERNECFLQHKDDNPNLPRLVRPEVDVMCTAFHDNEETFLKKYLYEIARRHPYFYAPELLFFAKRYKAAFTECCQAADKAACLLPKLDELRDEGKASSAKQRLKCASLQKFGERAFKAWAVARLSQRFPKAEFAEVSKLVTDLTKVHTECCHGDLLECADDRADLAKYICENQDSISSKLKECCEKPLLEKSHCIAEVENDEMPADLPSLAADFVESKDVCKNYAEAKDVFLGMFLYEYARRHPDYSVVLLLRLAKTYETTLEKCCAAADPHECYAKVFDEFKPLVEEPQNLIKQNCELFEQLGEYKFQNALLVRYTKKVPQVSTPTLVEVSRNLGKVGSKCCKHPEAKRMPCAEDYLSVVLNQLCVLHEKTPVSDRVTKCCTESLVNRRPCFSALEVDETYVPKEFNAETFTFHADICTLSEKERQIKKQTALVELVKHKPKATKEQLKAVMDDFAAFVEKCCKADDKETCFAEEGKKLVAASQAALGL

What was measured:
HSA [1] = biological target: T1, HSA (Homo sapiens, UniProt P02768); details: known site specificity of reference compounds (crystallography studies); cited from earlier work
T1 construct: purchased Sigma A-4327

HSA [2] = biological target: T1, HSA; assay: SPR (BIACORE S51) competition assay for HSA-binding site specificity, dissociation-phase response of mixtures; details: S1 constant 0.1 μM; reference 0-200 μM; d2 report point; FIG. 4

effect of the reference compound on binding/dissociation phase of S1 on HSA (HSA [2]): inhibits it to some degree
Structure (SMILES): COc1ccc2cc([C@H](C)C(=O)O)ccc2c1 [naproxen]
known HSA-binding site (HSA [1]): site II
